From publication doi:10.1101/2020.03.18.994004
No constants are given. Whether binding was seen depends on the method and setting. Some entries that bind do so weakly or less than the wild type.

By UniProt entry, the sequences of proteins in these tests, tags left out.
UniProt P35609: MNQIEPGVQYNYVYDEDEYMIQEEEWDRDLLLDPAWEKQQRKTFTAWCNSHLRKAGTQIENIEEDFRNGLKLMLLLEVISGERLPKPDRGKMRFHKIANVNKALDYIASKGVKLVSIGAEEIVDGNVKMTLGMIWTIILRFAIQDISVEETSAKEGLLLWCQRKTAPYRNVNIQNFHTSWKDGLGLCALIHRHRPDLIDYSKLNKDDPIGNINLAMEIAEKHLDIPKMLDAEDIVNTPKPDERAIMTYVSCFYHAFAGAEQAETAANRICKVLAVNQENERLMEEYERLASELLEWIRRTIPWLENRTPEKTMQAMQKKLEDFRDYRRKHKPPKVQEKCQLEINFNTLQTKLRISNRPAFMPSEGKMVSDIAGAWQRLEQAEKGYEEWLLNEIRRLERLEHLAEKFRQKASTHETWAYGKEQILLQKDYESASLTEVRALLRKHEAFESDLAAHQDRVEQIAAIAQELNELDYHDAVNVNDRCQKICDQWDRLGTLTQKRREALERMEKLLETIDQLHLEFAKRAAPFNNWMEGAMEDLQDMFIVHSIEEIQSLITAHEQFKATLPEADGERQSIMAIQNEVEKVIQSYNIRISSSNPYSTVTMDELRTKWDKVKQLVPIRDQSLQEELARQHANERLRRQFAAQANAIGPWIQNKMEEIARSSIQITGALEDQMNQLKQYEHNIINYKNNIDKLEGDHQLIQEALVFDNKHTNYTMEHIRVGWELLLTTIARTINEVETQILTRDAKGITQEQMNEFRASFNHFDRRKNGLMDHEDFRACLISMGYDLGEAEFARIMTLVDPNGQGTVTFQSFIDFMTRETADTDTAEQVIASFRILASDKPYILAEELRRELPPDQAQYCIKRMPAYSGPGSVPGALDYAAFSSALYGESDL

Target: full-length actinin, mammalian two-hybrid bait (human) (UniProt P35609)
Assay: two-hybrid

| binding | Binder |
| --- | --- |
| no binding | IGF2BP2 RRM domain (residues 1-160), mammalian two-hybrid prey (domain or fragment, UniProt Q9Y6M1 1-160) MMNKLYIGNLSPAVTADDLRQLFGDRKLPLAGQVLLKSGYAFVDYPDQNWAIRAIETLSGKVELHGKIMEVDYSVSKKLRSRKIQIRNIPPHLQWEVLDGLLAQYGTVENVEQVNTDTETAVVNVTYATREEAKIAMEKLSGHQFENYSFKISYIPDEEV |
| binds | IGF2BP2 KH domain (residues 161-600), mammalian two-hybrid prey (domain or fragment, UniProt Q9Y6M1 161-599) SSPSPPQRAQRGDHSSREQGHAPGGTSQARQIDFPLRILVPTQFVGAIIGKEGLTIKNITKQTQSRVDIHRKENSGAAEKPVTIHATPEGTSEACRMILEIMQKEADETKLAEEIPLKILAHNGLVGRLIGKEGRNLKKIEHETGTKITISSLQDLSIYNPERTITVKGTVEACASAEIEIMKKLREAFENDMLAVNQQANLIPGLNLSALGIFSTGLSVLSPPAGPRGAPPAAPYHPFTTHSGYFSSLYPHHQFGPFPHHHSYPEQEIVNLFIPTQAVGAIIGKKGAHIKQLARFAGASIKIAPAEGPDVSERMVIITGPPEAQFKAQGRIFGKLKEENFFNPKEEVKLEAHIRVPSSTAGRVIGKGGKTVNELQNLTSAEVIVPRDQTPDENEEVIVRIIGHFFASQTAQRKIREIVQQVKQQEQKYPQGVASQRSK |
